Reference: patent US20230192860A1
These are yes or no findings as the source states them, for the method shown. Some entries that bind do so weakly or less than the wild type.

Assays:
[1] = target: T1, hVISTA IgV domain (co-crystallised) (human) (UniProt Q9H7M9); experiment: structure (FIG. 18E)
T1 sequence: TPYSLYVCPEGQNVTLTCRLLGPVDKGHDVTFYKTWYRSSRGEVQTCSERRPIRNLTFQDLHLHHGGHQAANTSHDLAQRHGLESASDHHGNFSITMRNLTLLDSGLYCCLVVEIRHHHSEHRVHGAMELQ

[2] = target: monovalent hVISTA-ECD (amino acids 32-193 of SEQ ID NO: 1 with a 7xHis tail) (human) (UniProt Q9H7M9); experiment: SPR 37C, Ab on Protein A, 100 nM hVISTA-ECD, pH 7.4, 6.7 and 6.0

binding [1]: binds | binding [2]: binds
B1: VISTA.5 (mAb1) (antibody, V domains shown)
VH: AVQLQESGPGLVRPSQSLSLTCTVTDYSITSDYAWNWIRQFPGSKLEWLGFIGYSGNTNYNPSLESRISITRHTSKNQFFLHLNSMTTEDTATYYCARSLYGGSHWYFDVWGAGTTVTVSS
VL: DIVLTQSPASLAVSLGQRATISCRGSESVEYYGTILMQWYQQKPGQPPKLLIYGASNVESGVPARFSGSGSGTDFSLNIHPVEEDDIAMYFCQQSRKVPWTFGGGTKLEIK
